# Test results taken from the supplement of paper PMC8728848.
# This is one part of the list.
# How the values were obtained:
# Experiment in all cases: glycan array binding signal (z-score within array); higher = stronger binding
# Conditions in all cases: glycan notation: IUPAC condensed, linker removed
# [1] = molecular target: Fuc(a1-2)Gal(b1-4)GlcNAc(b1-3)Gal(b1-4)GlcNAc(b1-3)Gal(b1-4)GlcNAc
# Summary of the method: (§1)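 Negative Z-scores can be read as non-binding. The Z-score is calculated within each array and then averaged across arrays of one protein sequence at different concentrations or buffers and across linkers. Arrays, 3228 in all, were curated from the Consortium for Functional Glycomics database and kept only where the protein sequence was available.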
# [2] = molecular target: Fuc(a1-2)Gal(b1-4)GlcNAc(b1-3)GalNAc
# Summary of the method: as §1
# [3] = molecular target: Fuc(a1-2)Gal(b1-4)GlcNAc(b1-3)[Fuc(a1-2)Gal(b1-4)GlcNAc(b1-6)]GalNAc
# Summary of the method: as §1
# [4] = molecular target: Fuc(a1-2)Gal(b1-4)GlcNAc(b1-3)[Fuc(a1-3)[Gal(b1-4)]GlcNAc(b1-6)]Gal(b1-4)Glc
# Summary of the method: as §1
# [5] = molecular target: Fuc(a1-2)Gal(b1-4)GlcNAc(b1-6)GalNAc
# Summary of the method: as §1
# [6] = molecular target: Fuc(a1-2)Gal(b1-4)GlcNAc6S
# Summary of the method: as §1
# [7] = molecular target: Fuc(a1-2)Gal(b1-4)[Fuc(a1-3)]GlcNAc
# Summary of the method: as §1
# [8] = molecular target: Fuc(a1-2)Gal(b1-4)[Fuc(a1-3)]GlcNAc(b1-2)Man(a1-3)[Fuc(a1-2)Gal(b1-4)[Fuc(a1-3)]GlcNAc(b1-2)Man(a1-6)]Man(b1-4)GlcNAc(b1-4)[Fuc(a1-6)]GlcNAc
# Summary of the method: as §1
# [9] = molecular target: Fuc(a1-2)Gal(b1-4)[Fuc(a1-3)]GlcNAc(b1-2)[Fuc(a1-2)Gal(b1-4)[Fuc(a1-3)]GlcNAc(b1-4)]Man(a1-3)[Fuc(a1-2)Gal(b1-4)[Fuc(a1-3)]GlcNAc(b1-2)Man(a1-6)]Man(b1-4)GlcNAc(b1-4)GlcNAc
# Summary of the method: as §1
# [10] = molecular target: Fuc(a1-2)Gal(b1-4)[Fuc(a1-3)]GlcNAc(b1-3)Gal(b1-4)[Fuc(a1-3)]GlcNAc
# Summary of the method: as §1
# [11] = molecular target: Fuc(a1-2)Gal(b1-4)[Fuc(a1-3)]GlcNAc(b1-3)Gal(b1-4)[Fuc(a1-3)]GlcNAc(b1-3)Gal(b1-4)[Fuc(a1-3)]GlcNAc
# Summary of the method: as §1
# [12] = molecular target: Fuc(a1-2)Gal(b1-4)[Fuc(a1-3)]GlcNAc(b1-3)GalNAc
# Summary of the method: as §1
# [13] = molecular target: Fuc(a1-2)Gal(b1-4)[Fuc(a1-3)]GlcNAc(b1-3)[Neu5Ac(a2-6)Gal(b1-4)GlcNAc(b1-6)]Gal(b1-4)Glc
# Summary of the method: as §1
# [14] = molecular target: Fuc(a1-2)Gal3S(b1-4)GlcNAc
# Summary of the method: as §1
# [15] = molecular target: Fuc(a1-2)Gal6S(b1-3)GlcNAc
# Summary of the method: as §1
# [16] = molecular target: Fuc(a1-2)Gal6S(b1-3)GlcNAc6S
# Summary of the method: as §1
# [17] = molecular target: Fuc(a1-2)Gal6S(b1-4)Glc
# Summary of the method: as §1
# [18] = molecular target: Fuc(a1-2)Gal6S(b1-4)Glc6S
# Summary of the method: as §1
# [19] = molecular target: Fuc(a1-2)[Gal(a1-3)]Gal
# Summary of the method: as §1
# [20] = molecular target: Fuc(a1-2)[Gal(a1-3)]Gal(b1-3)GalNAc
# Summary of the method: as §1
# [21] = molecular target: Fuc(a1-2)[Gal(a1-3)]Gal(b1-3)GalNAc(b1-3)Gal(a1-4)Gal(b1-4)Glc
# Summary of the method: as §1
# [22] = molecular target: Fuc(a1-2)[Gal(a1-3)]Gal(b1-3)GlcNAc
# Summary of the method: as §1
# [23] = molecular target: Fuc(a1-2)[Gal(a1-3)]Gal(b1-3)GlcNAc(b1-2)Man(a1-3)[Fuc(a1-2)[Gal(a1-3)]Gal(b1-3)GlcNAc(b1-2)Man(a1-6)]Man(b1-4)GlcNAc(b1-4)GlcNAc
# Summary of the method: as §1
# [24] = molecular target: Fuc(a1-2)[Gal(a1-3)]Gal(b1-3)GlcNAc(b1-2)Man(a1-3)[Fuc(a1-2)[Gal(a1-3)]Gal(b1-3)GlcNAc(b1-2)Man(a1-6)]Man(b1-4)GlcNAc(b1-4)[Fuc(a1-6)]GlcNAc
# Summary of the method: as §1
# [25] = molecular target: Fuc(a1-2)[Gal(a1-3)]Gal(b1-3)GlcNAc(b1-3)GalNAc
# Summary of the method: as §1
# [26] = molecular target: Fuc(a1-2)[Gal(a1-3)]Gal(b1-3)GlcNAc(b1-6)GalNAc
# Summary of the method: as §1
# [27] = molecular target: Fuc(a1-2)[Gal(a1-3)]Gal(b1-4)Glc
# Summary of the method: as §1
# [28] = molecular target: Fuc(a1-2)[Gal(a1-3)]Gal(b1-4)GlcNAc
# Summary of the method: as §1
# [29] = molecular target: Fuc(a1-2)[Gal(a1-3)]Gal(b1-4)GlcNAc(b1-2)Man
# Summary of the method: as §1
# [30] = molecular target: Fuc(a1-2)[Gal(a1-3)]Gal(b1-4)GlcNAc(b1-2)Man(a1-3)[Fuc(a1-2)[Gal(a1-3)]Gal(b1-4)GlcNAc(b1-2)Man(a1-6)]Man(b1-4)GlcNAc(b1-4)GlcNAc
# Summary of the method: as §1
binder,measurement,setting,value
PX14343C-bfa-541-26-541 (Bacteroides fragilis) (protein) KAPLDEIADDSFWSDETLVKYYVNDLYSEISVDGLQLQENRSDNSVSAQRDKYRASWFKFNYDMVSASDPQDDDVWEDYYVKVRKCNRFFERIGTSTIEESEKSRLTGEVHFLRAMFYFEMVKRYGGVILLDKVLTMEDNWEIPRSSEKECYDFILEDLKKATEMLPASYGSREKGRATKGAAYALKSRVELYDKRYEDVIKSCAEVYKLGYELVDGTTPEKYRSIWWTTNKDNKEIIFDVQYKSPDVYNNMMVCNMVTYINDKYGDRGWGGLGPTQELIDAFEMADGTPATQYSQAPADQVFDINTCGIYEGREPRFYANIVFHGSQIFFNADKGAVTVDRYLMDTPDKGDGSLTGYNVWKWIDYDNYNYPYAGAGSPDFSTNWIILRYAEIYLNDAEARLETGDVEGARKAVNMIRQRVGLPDLTESDPEKLRELIRKERRIEFAFEEQRFYDVRRWKIGPETQTTLHGVRFVSPTEFKVTKTDIRTWNDRLYLTPVPHDEIVRSSVLKQNLGY,glycan array binding signal (z-score),[1],-0.681
same,glycan array binding signal (z-score),[2],0.282
same,glycan array binding signal (z-score),[3],-0.425
same,glycan array binding signal (z-score),[4],-0.652
same,glycan array binding signal (z-score),[5],-0.468
same,glycan array binding signal (z-score),[6],-0.542
same,glycan array binding signal (z-score),[7],-0.648
same,glycan array binding signal (z-score),[8],0.078
same,glycan array binding signal (z-score),[9],0.44
same,glycan array binding signal (z-score),[10],-0.558
same,glycan array binding signal (z-score),[11],-0.071
same,glycan array binding signal (z-score),[12],-0.284
same,glycan array binding signal (z-score),[13],1.07
same,glycan array binding signal (z-score),[14],-0.822
same,glycan array binding signal (z-score),[15],-0.193
same,glycan array binding signal (z-score),[16],0.425
same,glycan array binding signal (z-score),[17],3.12
same,glycan array binding signal (z-score),[18],-0.26
same,glycan array binding signal (z-score),[19],0.21
same,glycan array binding signal (z-score),[20],-0.505
same,glycan array binding signal (z-score),[21],-0.107
same,glycan array binding signal (z-score),[22],-0.558
same,glycan array binding signal (z-score),[23],2.35
same,glycan array binding signal (z-score),[24],0.698
same,glycan array binding signal (z-score),[25],0.719
same,glycan array binding signal (z-score),[26],2.42
same,glycan array binding signal (z-score),[27],0.209
same,glycan array binding signal (z-score),[28],-0.674
same,glycan array binding signal (z-score),[29],-0.447
same,glycan array binding signal (z-score),[30],0.192

# Reformatted with tabs: part of the list above
binder	measurement	setting	value
PX14343C-bfa-541-26-541 (Bacteroides fragilis) (protein) KAPLDEIADDSFWSDETLVKYYVNDLYSEISVDGLQLQENRSDNSVSAQRDKYRASWFKFNYDMVSASDPQDDDVWEDYYVKVRKCNRFFERIGTSTIEESEKSRLTGEVHFLRAMFYFEMVKRYGGVILLDKVLTMEDNWEIPRSSEKECYDFILEDLKKATEMLPASYGSREKGRATKGAAYALKSRVELYDKRYEDVIKSCAEVYKLGYELVDGTTPEKYRSIWWTTNKDNKEIIFDVQYKSPDVYNNMMVCNMVTYINDKYGDRGWGGLGPTQELIDAFEMADGTPATQYSQAPADQVFDINTCGIYEGREPRFYANIVFHGSQIFFNADKGAVTVDRYLMDTPDKGDGSLTGYNVWKWIDYDNYNYPYAGAGSPDFSTNWIILRYAEIYLNDAEARLETGDVEGARKAVNMIRQRVGLPDLTESDPEKLRELIRKERRIEFAFEEQRFYDVRRWKIGPETQTTLHGVRFVSPTEFKVTKTDIRTWNDRLYLTPVPHDEIVRSSVLKQNLGY	glycan array binding signal (z-score)	[9]	0.44
same	glycan array binding signal (z-score)	[20]	-0.505
